{"source": "paper PMC3873602", "about": "“Atheroprotective Vaccination with MHC-II Restricted Peptides from ApoB-100” (Frontiers in Immunology, 2013)", "assay": "Lipid analysis of immunized mice", "format": "in vivo, mouse", "conditions": "Apoe^−/− mice, 1× CFA + 4× IFA immunization, WD, at 23 weeks; mean ± SD, N = 6–7"}
{"sequence": "MEVGWYRSPFSRVVHLYRNGK [MOG35–55, irrelevant control peptide, myelin oligodendrocyte glycoprotein 35–55]", "values": [{"measurement": "HDL", "result": "213 ± 7.5", "unit": "mg/dL"}, {"measurement": "Non-HDL", "result": "801.7 ± 72.4", "unit": "mg/dL"}, {"measurement": "TC", "result": "1014.7 ± 76.4", "unit": "mg/dL"}, {"measurement": "TG", "result": "142.3 ± 33.2", "unit": "mg/dL"}]}
